In the supplement of paper PMC10849652:
This is one part of the list.

Chains of the proteins cited; added tags and fusions are not shown. Lines headed by an entry give the natural chain unless they say otherwise; changes in a name come on top.
UniProt P49773: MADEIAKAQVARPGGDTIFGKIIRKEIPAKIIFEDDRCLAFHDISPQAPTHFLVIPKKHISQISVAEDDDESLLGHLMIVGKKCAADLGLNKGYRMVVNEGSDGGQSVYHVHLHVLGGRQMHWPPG
UniProt P19367: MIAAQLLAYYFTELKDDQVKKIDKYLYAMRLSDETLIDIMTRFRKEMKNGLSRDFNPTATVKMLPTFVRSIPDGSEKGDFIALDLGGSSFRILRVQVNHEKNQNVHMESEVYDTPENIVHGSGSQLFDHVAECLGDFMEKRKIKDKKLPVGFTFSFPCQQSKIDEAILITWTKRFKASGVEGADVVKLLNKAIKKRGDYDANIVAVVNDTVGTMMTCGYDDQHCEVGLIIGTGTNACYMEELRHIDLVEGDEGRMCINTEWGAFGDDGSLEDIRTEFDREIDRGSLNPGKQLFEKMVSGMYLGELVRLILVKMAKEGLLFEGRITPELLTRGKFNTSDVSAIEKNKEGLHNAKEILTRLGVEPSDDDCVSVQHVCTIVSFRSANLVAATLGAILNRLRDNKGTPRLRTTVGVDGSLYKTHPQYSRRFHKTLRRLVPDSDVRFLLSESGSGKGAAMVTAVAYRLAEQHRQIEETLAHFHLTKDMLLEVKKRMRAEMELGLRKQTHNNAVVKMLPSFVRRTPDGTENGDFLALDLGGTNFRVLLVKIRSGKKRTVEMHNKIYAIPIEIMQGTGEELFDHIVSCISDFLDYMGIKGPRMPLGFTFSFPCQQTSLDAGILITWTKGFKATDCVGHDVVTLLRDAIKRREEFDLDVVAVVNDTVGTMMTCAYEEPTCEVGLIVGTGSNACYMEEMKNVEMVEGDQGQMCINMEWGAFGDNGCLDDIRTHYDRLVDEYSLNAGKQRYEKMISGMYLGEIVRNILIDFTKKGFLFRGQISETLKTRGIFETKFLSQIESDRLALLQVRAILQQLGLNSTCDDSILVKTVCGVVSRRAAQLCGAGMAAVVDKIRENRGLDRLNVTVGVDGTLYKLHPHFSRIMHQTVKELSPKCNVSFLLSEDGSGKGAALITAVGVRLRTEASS
UniProt Q8TCT9: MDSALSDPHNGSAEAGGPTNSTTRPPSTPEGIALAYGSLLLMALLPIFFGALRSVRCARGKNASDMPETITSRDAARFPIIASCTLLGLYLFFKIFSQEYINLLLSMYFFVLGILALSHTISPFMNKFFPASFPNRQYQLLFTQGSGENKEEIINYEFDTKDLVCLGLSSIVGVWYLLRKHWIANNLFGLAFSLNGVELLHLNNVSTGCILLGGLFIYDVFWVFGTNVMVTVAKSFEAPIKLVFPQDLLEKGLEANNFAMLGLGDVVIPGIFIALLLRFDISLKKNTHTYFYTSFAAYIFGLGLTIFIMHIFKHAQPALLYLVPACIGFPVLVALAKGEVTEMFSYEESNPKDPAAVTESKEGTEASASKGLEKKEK
UniProt P06865: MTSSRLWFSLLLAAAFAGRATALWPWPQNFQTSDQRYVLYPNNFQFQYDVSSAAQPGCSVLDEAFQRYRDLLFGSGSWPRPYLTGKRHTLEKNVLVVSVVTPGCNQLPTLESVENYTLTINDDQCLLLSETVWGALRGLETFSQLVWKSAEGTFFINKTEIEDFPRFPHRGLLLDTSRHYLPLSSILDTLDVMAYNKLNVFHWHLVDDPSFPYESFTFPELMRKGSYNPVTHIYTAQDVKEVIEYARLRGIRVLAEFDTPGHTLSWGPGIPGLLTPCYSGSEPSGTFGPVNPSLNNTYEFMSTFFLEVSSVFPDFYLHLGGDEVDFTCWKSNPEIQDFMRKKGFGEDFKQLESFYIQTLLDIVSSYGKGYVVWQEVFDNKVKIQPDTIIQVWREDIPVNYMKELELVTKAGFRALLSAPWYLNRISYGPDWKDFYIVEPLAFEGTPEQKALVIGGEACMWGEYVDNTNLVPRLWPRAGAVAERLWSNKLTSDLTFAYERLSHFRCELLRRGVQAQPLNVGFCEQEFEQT
UniProt Q6NVY1: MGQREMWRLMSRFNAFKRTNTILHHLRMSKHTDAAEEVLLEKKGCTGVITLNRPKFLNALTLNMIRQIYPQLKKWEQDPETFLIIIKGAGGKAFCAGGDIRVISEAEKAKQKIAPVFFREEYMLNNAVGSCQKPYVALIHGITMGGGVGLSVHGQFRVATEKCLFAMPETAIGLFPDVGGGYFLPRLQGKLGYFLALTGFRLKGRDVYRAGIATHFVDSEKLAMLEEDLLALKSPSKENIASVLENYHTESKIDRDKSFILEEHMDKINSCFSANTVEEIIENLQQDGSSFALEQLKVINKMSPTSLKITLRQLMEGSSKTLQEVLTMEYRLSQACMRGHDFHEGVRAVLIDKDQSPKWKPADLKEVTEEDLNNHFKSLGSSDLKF
UniProt Q8WVB3: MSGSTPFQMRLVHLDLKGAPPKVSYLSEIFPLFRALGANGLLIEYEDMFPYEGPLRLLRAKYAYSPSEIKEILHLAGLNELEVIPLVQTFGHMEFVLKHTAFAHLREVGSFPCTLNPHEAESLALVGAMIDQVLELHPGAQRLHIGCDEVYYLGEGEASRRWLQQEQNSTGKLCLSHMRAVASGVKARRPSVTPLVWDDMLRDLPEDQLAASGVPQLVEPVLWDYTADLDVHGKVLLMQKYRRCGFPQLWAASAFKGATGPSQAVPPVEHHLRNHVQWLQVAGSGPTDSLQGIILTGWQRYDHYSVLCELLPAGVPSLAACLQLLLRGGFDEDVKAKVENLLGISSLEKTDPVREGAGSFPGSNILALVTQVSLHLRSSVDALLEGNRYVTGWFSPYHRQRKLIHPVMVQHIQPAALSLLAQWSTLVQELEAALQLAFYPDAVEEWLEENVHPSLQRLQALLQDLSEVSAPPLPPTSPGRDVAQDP
UniProt P23327: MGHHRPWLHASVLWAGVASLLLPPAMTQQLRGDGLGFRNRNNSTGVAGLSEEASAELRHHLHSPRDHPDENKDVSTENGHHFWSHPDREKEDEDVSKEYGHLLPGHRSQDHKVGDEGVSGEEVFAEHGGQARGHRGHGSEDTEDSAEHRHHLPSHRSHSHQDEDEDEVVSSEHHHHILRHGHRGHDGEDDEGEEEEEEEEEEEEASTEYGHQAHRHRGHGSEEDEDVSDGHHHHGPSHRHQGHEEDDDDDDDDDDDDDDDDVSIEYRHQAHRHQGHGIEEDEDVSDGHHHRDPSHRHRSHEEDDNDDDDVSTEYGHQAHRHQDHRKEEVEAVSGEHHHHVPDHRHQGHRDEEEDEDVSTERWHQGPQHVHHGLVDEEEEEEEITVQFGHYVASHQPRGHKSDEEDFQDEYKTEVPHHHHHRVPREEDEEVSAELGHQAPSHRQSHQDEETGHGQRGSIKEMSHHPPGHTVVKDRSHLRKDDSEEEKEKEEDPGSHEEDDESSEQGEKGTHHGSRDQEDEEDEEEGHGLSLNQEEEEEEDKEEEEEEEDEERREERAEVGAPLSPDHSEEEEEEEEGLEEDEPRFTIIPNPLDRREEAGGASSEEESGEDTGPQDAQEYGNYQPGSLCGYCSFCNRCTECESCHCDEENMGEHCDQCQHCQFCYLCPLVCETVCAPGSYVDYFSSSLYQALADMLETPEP
UniProt Q9BW71: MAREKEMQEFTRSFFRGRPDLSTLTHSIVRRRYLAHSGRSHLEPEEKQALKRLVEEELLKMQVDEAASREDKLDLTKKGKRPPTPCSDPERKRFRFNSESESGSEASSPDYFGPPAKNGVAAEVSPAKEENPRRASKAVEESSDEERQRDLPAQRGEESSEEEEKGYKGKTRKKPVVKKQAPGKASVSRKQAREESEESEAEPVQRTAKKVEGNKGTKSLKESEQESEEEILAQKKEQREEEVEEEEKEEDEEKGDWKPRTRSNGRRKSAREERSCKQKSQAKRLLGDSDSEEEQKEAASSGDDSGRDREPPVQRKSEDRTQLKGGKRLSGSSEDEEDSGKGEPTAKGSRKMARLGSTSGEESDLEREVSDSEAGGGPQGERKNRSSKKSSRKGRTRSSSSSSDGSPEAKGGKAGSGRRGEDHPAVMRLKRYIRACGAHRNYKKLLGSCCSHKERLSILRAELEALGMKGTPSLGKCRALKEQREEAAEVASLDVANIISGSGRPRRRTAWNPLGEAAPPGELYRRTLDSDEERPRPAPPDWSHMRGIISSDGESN
UniProt Q9Y241: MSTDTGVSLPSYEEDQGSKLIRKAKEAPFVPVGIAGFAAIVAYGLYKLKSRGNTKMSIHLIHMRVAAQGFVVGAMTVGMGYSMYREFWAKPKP
UniProt Q8NG08: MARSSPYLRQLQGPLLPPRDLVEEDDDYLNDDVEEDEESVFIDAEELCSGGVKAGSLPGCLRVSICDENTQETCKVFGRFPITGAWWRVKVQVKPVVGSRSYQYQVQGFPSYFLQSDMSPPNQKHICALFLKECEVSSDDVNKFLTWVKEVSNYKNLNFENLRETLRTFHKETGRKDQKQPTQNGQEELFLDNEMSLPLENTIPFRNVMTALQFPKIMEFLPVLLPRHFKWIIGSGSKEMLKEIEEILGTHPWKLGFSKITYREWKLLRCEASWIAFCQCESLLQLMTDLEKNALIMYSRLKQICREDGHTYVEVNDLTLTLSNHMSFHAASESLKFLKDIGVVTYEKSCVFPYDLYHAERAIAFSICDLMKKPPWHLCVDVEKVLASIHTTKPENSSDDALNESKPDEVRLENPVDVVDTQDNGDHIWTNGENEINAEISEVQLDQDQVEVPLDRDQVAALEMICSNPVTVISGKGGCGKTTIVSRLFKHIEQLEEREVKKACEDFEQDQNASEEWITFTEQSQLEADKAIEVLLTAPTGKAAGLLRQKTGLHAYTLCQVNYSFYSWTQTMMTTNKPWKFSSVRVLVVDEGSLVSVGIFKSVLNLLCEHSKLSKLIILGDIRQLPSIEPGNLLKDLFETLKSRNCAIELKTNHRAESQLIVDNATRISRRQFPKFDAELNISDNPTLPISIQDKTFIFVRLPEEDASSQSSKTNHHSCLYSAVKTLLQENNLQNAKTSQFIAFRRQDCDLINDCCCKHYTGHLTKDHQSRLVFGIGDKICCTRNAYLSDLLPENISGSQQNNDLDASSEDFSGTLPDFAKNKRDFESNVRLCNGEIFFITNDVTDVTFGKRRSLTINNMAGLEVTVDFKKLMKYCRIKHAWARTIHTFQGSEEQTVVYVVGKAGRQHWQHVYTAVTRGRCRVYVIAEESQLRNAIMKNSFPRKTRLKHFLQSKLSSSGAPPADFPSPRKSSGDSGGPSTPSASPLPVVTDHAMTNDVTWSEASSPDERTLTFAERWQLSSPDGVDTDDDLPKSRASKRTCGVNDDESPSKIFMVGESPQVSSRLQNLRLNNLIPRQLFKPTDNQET
UniProt Q9UJC3, whole entry, looked up: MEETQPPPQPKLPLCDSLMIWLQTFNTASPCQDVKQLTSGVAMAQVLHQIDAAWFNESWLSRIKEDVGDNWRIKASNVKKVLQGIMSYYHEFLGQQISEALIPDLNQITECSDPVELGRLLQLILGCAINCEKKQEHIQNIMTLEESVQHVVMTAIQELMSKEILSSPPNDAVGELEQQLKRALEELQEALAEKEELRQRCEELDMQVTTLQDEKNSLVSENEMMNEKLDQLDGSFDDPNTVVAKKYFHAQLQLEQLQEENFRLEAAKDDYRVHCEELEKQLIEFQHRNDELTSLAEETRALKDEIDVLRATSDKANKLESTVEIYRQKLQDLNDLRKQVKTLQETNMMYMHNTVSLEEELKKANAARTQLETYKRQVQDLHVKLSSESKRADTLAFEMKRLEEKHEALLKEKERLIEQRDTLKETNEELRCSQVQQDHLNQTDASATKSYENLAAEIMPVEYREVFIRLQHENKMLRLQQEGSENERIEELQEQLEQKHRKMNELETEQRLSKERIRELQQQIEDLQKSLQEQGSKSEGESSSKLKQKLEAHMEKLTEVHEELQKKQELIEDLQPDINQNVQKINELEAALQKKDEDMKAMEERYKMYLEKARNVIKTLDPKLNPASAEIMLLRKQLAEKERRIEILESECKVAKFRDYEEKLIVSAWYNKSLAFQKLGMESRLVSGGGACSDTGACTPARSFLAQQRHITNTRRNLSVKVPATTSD
UniProt P14866: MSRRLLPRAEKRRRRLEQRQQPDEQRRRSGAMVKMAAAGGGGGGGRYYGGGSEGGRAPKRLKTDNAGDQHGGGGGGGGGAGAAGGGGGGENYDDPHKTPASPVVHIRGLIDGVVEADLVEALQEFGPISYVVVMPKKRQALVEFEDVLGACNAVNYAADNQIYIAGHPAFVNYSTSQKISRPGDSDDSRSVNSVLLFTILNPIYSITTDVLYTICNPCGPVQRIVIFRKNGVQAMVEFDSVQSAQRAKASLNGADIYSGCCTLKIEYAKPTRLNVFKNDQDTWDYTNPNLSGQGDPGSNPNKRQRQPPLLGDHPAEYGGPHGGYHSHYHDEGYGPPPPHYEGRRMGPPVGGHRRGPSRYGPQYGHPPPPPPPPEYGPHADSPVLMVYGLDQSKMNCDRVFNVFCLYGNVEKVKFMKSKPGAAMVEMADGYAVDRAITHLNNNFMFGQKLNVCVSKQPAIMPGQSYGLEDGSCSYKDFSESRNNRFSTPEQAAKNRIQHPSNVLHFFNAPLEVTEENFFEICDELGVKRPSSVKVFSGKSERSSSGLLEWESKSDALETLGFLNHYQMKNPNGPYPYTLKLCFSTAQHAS

Assays:
Experiment in all cases: log2 fold change, soluble protein after heating vs DMSO (PISA); higher = thermal stabilisation; K562 lysate, 10 uM; active = over 0.2 and 3.5 SD of the protein, either way, in both replicates (recomputed)
alvocidib = compound: CN1CC[C@H](c2c(O)cc(O)c3c(=O)cc(-c4ccccc4Cl)oc23)[C@H](O)C1 [alvocidib]
Outline: (§1)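 The values are log-two fold changes in thermal stability compared with solvent controls and come from duplicates. They were obtained by TMTpro 16plex LC-MS/MS, with channel sums equalised, on the supernatant after 21,000xg for 90 min. That supernatant came from crude K562 extract at 1 mg/mL protein treated with 10 μM compound for 30 min, heated for 3 min across 48°C-58°C, pooled and brought to 0.5% NP-40 at 4°C.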

Tubastatin A = compound: CN1CCc2c(c3ccccc3n2Cc2ccc(C(=O)NO)cc2)C1 [Tubastatin A]
Outline: as §1

[1] = compound: CNC(=O)C1=CC=CC=C1NC2=NC(=NC=C2Cl)NC3=C(C=C(C=C3)N4CCOCC4)OC
Outline: as §1

defactinib = compound: CNC(=O)c1ccc(Nc2ncc(C(F)(F)F)c(NCc3nccnc3N(C)S(C)(=O)=O)n2)cc1 [defactinib]
Outline: as §1

[2] = compound: CNc1nc(-c2ccc3c(N)n[nH]c3c2)cc(N2C[C@@H](C(=O)NC3CCCCC3)CC[C@H]2C)n1
Outline: as §1

encorafenib = compound: COC(=O)N[C@@H](C)CNc1nccc(-c2cn(C(C)C)nc2-c2cc(Cl)cc(NS(C)(=O)=O)c2F)n1 [encorafenib]
Outline: as §1

[3] = compound: COC(=O)[C@H](CCSC)NC(=O)C1=C(C=C(C=C1)NC[C@H](CS)N)C2=CC=CC=C2
Outline: as §1

alisertib = compound: COc1cc(Nc2ncc3c(n2)-c2ccc(Cl)cc2C(c2c(F)cccc2OC)=NC3)ccc1C(=O)O [alisertib]
Outline: as §1

[4] = compound: COc1cc2nc(-c3cc(F)ccc3O)nc(N[C@@H]3CNC[C@H]3C(C)(C)O)c2cc1OC
Outline: as §1

gefitinib = compound: COc1cc2ncnc(Nc3ccc(F)c(Cl)c3)c2cc1OCCCN1CCOCC1 [gefitinib]
Outline: as §1

Measured: log2 fold change

HMBS (UniProt P08397)
inactive: alvocidib 0.048 | Tubastatin A 0.036 | [1] 0.012 | defactinib -0.014 | [2] -0.002 | encorafenib -0.041 | [3] -0.029 | alisertib -0.043 | [4] 0.011 | gefitinib -0.031

HSD17B4 (UniProt P51659)
inactive: alvocidib 0.009 | Tubastatin A 0.03 | [1] -0.003 | defactinib 0.002 | [2] 0.009 | encorafenib 0.001 | [3] -0.119 | alisertib 0.03 | [4] -0.008 | gefitinib -0.011

HS2ST1 (UniProt Q7LGA3)
inactive: alvocidib -0.022 | Tubastatin A 0.063 | [1] 0.063 | defactinib 0.06 | [2] 0.014 | encorafenib 0.044 | [3] 0.007 | alisertib 0.095 | [4] -0.07 | gefitinib 0.035

HPF1 (UniProt Q9NWY4)
inactive: alvocidib 0.031 | Tubastatin A -0.09 | [1] 0.015 | defactinib 0.021 | [2] -0.033 | encorafenib -0.027 | [3] 0.109 | alisertib 0.008 | [4] -0.002 | gefitinib 0.017

HINT1 (UniProt P49773)
inactive: alvocidib 0.053 | Tubastatin A 0.059 | [1] -0.024 | defactinib 0.081 | [2] -0.127 | encorafenib 0.023 | [3] -0.098 | alisertib 0.021 | [4] -0.036 | gefitinib -0.116

HEATR6 (UniProt Q6AI08)
inactive: alvocidib 0.03 | Tubastatin A -0.1 | [1] 0.025 | defactinib 0.011 | [2] 0.008 | encorafenib 0.039 | [3] 0.101 | alisertib -0.028 | [4] -0.01 | gefitinib 0.001

HK1 isoform 2 (UniProt P19367)
inactive: alvocidib -0.001 | Tubastatin A -0.038 | [1] -0.009 | defactinib 0.001 | [2] -0.011 | encorafenib 0.003 | [3] 0.004 | alisertib 0.017 | [4] -0.007 | gefitinib -0.011

HM13 (UniProt Q8TCT9)
inactive: alvocidib -0.109 | Tubastatin A -0.009 | [1] -0.004 | defactinib 0.127 | [2] 0.187 | encorafenib 0.08 | [3] 0.126 | alisertib 0.077 | [4] -0.029 | gefitinib 0.089

HEXA (UniProt P06865)
inactive: alvocidib 0.002 | Tubastatin A 0.023 | [1] -0.013 | defactinib 0.007 | [2] 0.044 | encorafenib -0.01 | [3] 0.005 | alisertib 0.017 | [4] -0.02 | gefitinib -0.022

HNRNPH3 (UniProt P31942)
inactive: alvocidib 0.021 | Tubastatin A -0.255 | [1] 0.002 | defactinib 0.036 | [2] -0.063 | encorafenib 0.04 | [3] 0.031 | alisertib 0 | [4] 0.002 | gefitinib -0.029

HIBCH (UniProt Q6NVY1)
inactive: alvocidib 0.033 | Tubastatin A 0.022 | [1] 0.004 | defactinib -0.022 | [2] -0.029 | encorafenib -0.04 | [3] 0.018 | alisertib 0 | [4] -0.028 | gefitinib 0.001

HLTF (UniProt Q14527)
inactive: alvocidib -0.027 | Tubastatin A -0.083 | [1] -0.001 | defactinib 0.028 | [2] 0.025 | encorafenib 0.004 | [3] 0.104 | alisertib 0.048 | [4] 0.01 | gefitinib 0.076

Taken from the listing (2 entries):
HEXA (UniProt P06865)
inactive: alvocidib 0.002 | Tubastatin A 0.023 | [1] -0.013 | defactinib 0.007 | [2] 0.044 | encorafenib -0.01 | [3] 0.005 | alisertib 0.017 | [4] -0.02 | gefitinib -0.022

HNRNPH3 (UniProt P31942)
inactive: alvocidib 0.021 | Tubastatin A -0.255 | [1] 0.002 | defactinib 0.036 | [2] -0.063 | encorafenib 0.04 | [3] 0.031 | alisertib 0 | [4] 0.002 | gefitinib -0.029

(cont.)

HSF2 (UniProt Q03933)
inactive: alvocidib -0.029 | Tubastatin A -0.019 | defactinib 0.02 | [2] -0.035 | encorafenib 0.062 | [3] 0.064

HECTD4 (UniProt J3KPF0)
inactive: alvocidib -0.027 | Tubastatin A -0.075 | [1] 0.001 | defactinib 0.012 | [2] -0.017 | encorafenib -0.072 | [3] 0.146 | alisertib 0.013 | [4] 0.045 | gefitinib -0.043

HEXD isoform 2 (UniProt Q8WVB3)
inactive: alvocidib 0.002 | Tubastatin A -0.008 | [1] -0.181 | defactinib -0.028 | encorafenib -0.065 | [3] 0.231 | [4] 0.045

HRC (UniProt P23327)
inactive: alvocidib -0.107 | Tubastatin A 0.068 | [1] -0.029 | defactinib 0.001 | [2] -0.015 | encorafenib -0.016 | [3] -0.005 | alisertib 0.012 | [4] 0.023 | gefitinib 0.009

HIRIP3 (UniProt Q9BW71)
inactive: alvocidib -0.023 | Tubastatin A 0.016 | [1] 0.033 | defactinib -0.014 | [2] 0.062 | encorafenib 0.025 | [3] -0.012 | alisertib 0.046 | [4] 0 | gefitinib 0.05

HIGD1A isoform 2 (UniProt Q9Y241)
inactive: alvocidib 0.022 | Tubastatin A -0.007 | [1] 0.143 | [2] 0.174 | [4] 0.154

HSPA1A (UniProt P0DMV8)
inactive: alvocidib 0.047 | Tubastatin A 0.079 | [1] -0.023 | defactinib 0.008 | [2] -0.031 | encorafenib -0.01 | [3] -0.009 | alisertib 0.019 | [4] -0.002 | gefitinib -0.008

HNRNPUL1 (UniProt M0R247)
inactive: alvocidib -0.042 | [1] -0.03

HELB (UniProt Q8NG08)
inactive: alvocidib -0.028 | Tubastatin A -0.028 | [1] 0.011 | defactinib -0.016 | [2] 0.024 | encorafenib 0.009 | [3] -0.011 | alisertib 0.012 | [4] 0.021 | gefitinib -0.007

HSPA6 (UniProt P17066)
inactive: alvocidib -0.045 | Tubastatin A 0.033 | [1] -0.022 | defactinib -0.025 | [2] -0.69 | encorafenib -0.003 | [3] 0.033 | alisertib 0.001 | [4] 0.017 | gefitinib -0.011

HPS3 (UniProt Q969F9)
inactive: alvocidib -0.025 | Tubastatin A -0.238 | [1] 0.007 | defactinib -0.055 | [2] 0.095 | encorafenib -0.145 | [3] 0.126 | alisertib 0.062 | gefitinib -0.035

HSCB (UniProt Q8IWL3)
inactive: alvocidib -0.034 | Tubastatin A 0.014 | [1] 0.006 | defactinib 0.126 | [2] 0.038 | encorafenib -0.1 | [3] -0.071 | [4] 0.006

HIRA (UniProt P54198)
inactive: alvocidib 0.053 | Tubastatin A -0.059 | [1] 0.092 | defactinib 0.02 | [2] 0.057 | encorafenib 0.051 | [3] -0.084 | alisertib -0.065 | [4] -0.103 | gefitinib -0.044

HMCN1 (UniProt Q96RW7)
inactive: alvocidib 0.151 | Tubastatin A 0.077 | defactinib -0.023 | alisertib 0.035 | gefitinib -0.035

HSP90AB4P (UniProt Q58FF6)
inactive: alvocidib -0.218 | Tubastatin A 0.167 | [1] -0.073 | defactinib -0.165 | [2] 0.015 | encorafenib 0.129 | [3] 0.026 | alisertib 0.03 | [4] 0.08 | gefitinib -0.166

HP (UniProt P00738)
inactive: alvocidib -0.073 | Tubastatin A 0.061 | [2] -0.215

HMOX2 (UniProt P30519)
inactive: alvocidib -0.024 | Tubastatin A -0.065 | [1] -0.032 | defactinib -0.029 | [2] 0.006 | encorafenib 0.016 | [3] -0.063 | alisertib 0.001 | [4] 0.004 | gefitinib -0.022

HOOK1 (UniProt Q9UJC3)
inactive: alvocidib -0.224 | [1] 0.088 | [2] 0.011

HNRNPL (UniProt P14866)
inactive: alvocidib 0.035 | Tubastatin A -0.174 | [1] 0.016 | defactinib 0.015 | [2] -0.02 | encorafenib 0 | [3] 0.073 | alisertib -0.026 | [4] -0.007 | gefitinib -0.019

HPS5 (UniProt Q9UPZ3)
inactive: alvocidib -0.11 | Tubastatin A -0.157 | [1] -0.034 | defactinib -0.083 | [2] -0.044 | alisertib 0.008 | [4] 0.148 | gefitinib 0.185

HOXB4 (UniProt P17483)
inactive: alvocidib -0.064 | Tubastatin A 0.082 | defactinib -0.032 | [2] -0.158 | encorafenib 0.032 | [3] -0.1 | alisertib -0.036 | [4] -0.106 | gefitinib 0.051

HECTD1 (UniProt Q9ULT8)
inactive: alvocidib -0.01 | Tubastatin A -0.054 | [1] -0.017 | defactinib 0.026 | [2] 0.005 | encorafenib -0.005 | [3] 0.012 | alisertib -0.002 | [4] 0.034 | gefitinib 0.013
